## Primary screen of a compound library

The filed quantity is “Percent Effect” (%).
How 0% and 100% were set is not recorded. Most values in the screen are low, and negative values occur.
This is an unselected part of the compounds tested.

Mtb growth Cornell: 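Whole-cell assay for inhibitors of Mycobacterium tuberculosis growth, labelled Cornell in the record; the read-out is not stated. The concentration is filed as 10 mM, unlikely as a test dose, so the dose is not known. The record gives no direction; compounds strong in two other growth screens of this library score well above the rest, so higher reads as stronger inhibition. About 53,000 compounds were tested under these conditions; 1.7% (about 900) showed 50% or more at least once.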
Mtb heat-shock: 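Assay on Mycobacterium tuberculosis, filed only as a heat shock assay from Cornell; the read-out is not stated. The concentration is filed as 10 mM, unlikely as a test dose, so the dose is not known. Direction is inferred from retests: higher values go with stronger inhibition. Size under these conditions: about 69,000 compounds, about 930 of them at 50% or above in at least one test.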

{"structure": "CC(Cn1cccn1)NC(=O)NCCc1ccc(Cl)s1", "stereo": "stereo not given", "Mtb growth Cornell": 17.48, "Mtb heat-shock": 34.5}
{"structure": "CC(C)c1cc(C(=O)N2CCN(Cc3ccsc3)CC2)n[nH]1", "Mtb growth Cornell": 50.59, "Mtb heat-shock": 36.75}
{"structure": "CN(C)C(=O)C1CN(Cc2ccccc2)CCN(S(C)(=O)=O)C1", "stereo": "stereo not given", "Mtb growth Cornell": 5.014, "Mtb heat-shock": 1.279}
{"structure": "CN(C)[C@@H]1CCN(C(=O)Cc2cccs2)[C@H]1Cc1cnn(C)c1.O=C(O)C(F)(F)F", "Mtb growth Cornell": 24.69, "Mtb heat-shock": 5.582}
{"structure": "CCOc1ccccc1C1=CCN(C(=O)C2CCN(C)C(=O)C2)CC1", "stereo": "stereo not given", "Mtb growth Cornell": -20.28, "Mtb heat-shock": -24.07}
{"structure": "Cc1cc(CN2CCC3(CC2)COC(COCC2CC2)C3)no1.O=C(O)C(F)(F)F", "stereo": "stereo not given", "Mtb growth Cornell": 10.53, "Mtb heat-shock": 20.37}
{"structure": "O=C(NCCC(O)c1ccccc1)c1ccco1", "stereo": "stereo not given", "Mtb heat-shock": 25}
{"structure": "O=C(O)C(F)(F)F.[H][C@@]12CCN(c3ncccn3)[C@]1([H])CC[C@@H](C(=O)NCc1cccs1)O2", "Mtb growth Cornell": 13.35, "Mtb heat-shock": -0.6848}
{"structure": "CCn1nc(C)c2nc(C(C)C)nc(NCCOC)c21", "Mtb heat-shock": -10.38}
{"structure": "COC(=O)c1cc(CN2CCN(c3ncccc3C)CC2)ccc1O", "Mtb growth Cornell": -4.722, "Mtb heat-shock": -15.52}
{"structure": "CCn1cc2c(n1)CN(Cc1ccoc1)CC2COCC1CC1.O=C(O)C(F)(F)F", "stereo": "stereo not given", "Mtb growth Cornell": -19.63, "Mtb heat-shock": 9.012}
{"structure": "O=C(O)C(F)(F)F.[H][C@@]12CN(Cc3cccc(C)n3)C[C@]1([H])OCCN2c1cnccn1", "Mtb growth Cornell": 19.12, "Mtb heat-shock": 4.272}
{"structure": "COc1ccc(C(=O)NC2CC2)c(OC2CCN(C3CCC3)CC2)c1", "Mtb growth Cornell": -18.03, "Mtb heat-shock": -19.21}
{"structure": "O=C(NCc1nnc2n1CCCCC2)N1CCC2(CCCCC2)C1", "Mtb growth Cornell": 16.42, "Mtb heat-shock": 2.011}
{"structure": "[H][C@@]12CN(C(=O)c3ccco3)C[C@]1([H])C(=O)N(Cc1cccc(C)c1)C2", "Mtb growth Cornell": 22.2, "Mtb heat-shock": -4.83}
{"structure": "CC(C)NC(=O)C1CCC2(CCN(Cc3cnn(C)c3)CC2)CO1.O=C(O)C(F)(F)F", "stereo": "stereo not given", "Mtb growth Cornell": -16.85, "Mtb heat-shock": -31.54}
{"structure": "CN(C)C(=O)c1noc2c1CN(C(=O)CCC1CCCCN1C)CC2", "stereo": "stereo not given", "Mtb growth Cornell": -6.541, "Mtb heat-shock": 16.58}
{"structure": "CCc1ncc(C(=O)N(CCOC)Cc2ccccc2F)cn1", "Mtb heat-shock": -14.72}
{"structure": "CN1CCC(n2nc(Cc3cccs3)nc2-c2ccncc2)CC1", "Mtb growth Cornell": 12.76, "Mtb heat-shock": -12.27}
{"structure": "O=C(O)C(F)(F)F.O=C(O)C(F)(F)F.O=C(O)C(F)(F)F.[H][C@@]12CN(Cc3cccnc3)C[C@]1([H])[C@H](OC)CCN2Cc1c(C)noc1C", "Mtb growth Cornell": 7.919, "Mtb heat-shock": 14.07}
{"structure": "O=C(NCCC1=CCCCC1)C1CCCN(c2ccc3nncn3n2)C1", "stereo": "stereo not given", "Mtb growth Cornell": 16.61, "Mtb heat-shock": -15.49}
{"structure": "CC(C)[C@H]1CN(CC2CCC2)C[C@@H]1NC(=O)c1ccc(=O)[nH]c1", "Mtb heat-shock": -2.334}
{"structure": "FC(F)(F)c1cc(C2CCN(c3cnccn3)CC2)n2ccnc2n1", "Mtb growth Cornell": 47.21, "Mtb heat-shock": 4.046}
{"structure": "Cc1ccc(CN2CCC3(CC(=O)N(c4ccc5c(c4)OCO5)C3)C2)o1", "stereo": "stereo not given", "Mtb growth Cornell": 32.99, "Mtb heat-shock": 3.961}
{"structure": "Cc1ncsc1CCN(C)C(=O)CCc1nc2cccnc2n1C", "Mtb growth Cornell": 25.16, "Mtb heat-shock": -13.6}
{"structure": "CCc1ccccc1Nc1noc2c1CN(C(=O)CNC(C)=O)CC2", "Mtb growth Cornell": -23.55, "Mtb heat-shock": -4.378}
{"structure": "O=C(NC1CCCN(c2ccccc2Cl)C1)c1nc(=O)[nH][nH]1", "stereo": "stereo not given", "Mtb growth Cornell": 1.873, "Mtb heat-shock": -14.21}
{"structure": "CCN(Cc1ccncc1)c1cc(C2CCN2C(C)=O)nc(C)n1", "stereo": "stereo not given", "Mtb growth Cornell": -54.35, "Mtb heat-shock": 15.25}
{"structure": "CCC(=O)N1CCC(c2nc(C)c3c(n2)N(C)CCC3)CC1", "Mtb growth Cornell": -1.355, "Mtb heat-shock": -1.394}
{"structure": "CC(C)c1noc(CCC(=O)N2CCSCC2)n1", "Mtb growth Cornell": 3.875, "Mtb heat-shock": -13.71}
{"structure": "O=C(O)C(F)(F)F.O=C(O)C(F)(F)F.c1cnc(N2CC3(CCN(Cc4cccnc4)C3)C2)nc1", "Mtb growth Cornell": -25.95, "Mtb heat-shock": -26.88}
{"structure": "Cc1nc2c(c(NC(C)C)n1)CCN(C1CCOCC1)CC2.O=C(O)C(F)(F)F", "Mtb growth Cornell": 23.05, "Mtb heat-shock": -20.48}
{"structure": "[H][C@]12CCN(C(=O)c3ccncc3F)[C@@]1([H])CC[C@H](COC)O2", "Mtb heat-shock": -12.19}
{"structure": "COCCO[C@H]1CCN(C(=O)c2ccsc2)[C@H]1Cc1cnn(C)c1", "Mtb growth Cornell": 13.73, "Mtb heat-shock": 2.955}
{"structure": "CCCC(O)CN1CC(C)(C)CN(C(=O)c2ccc(Cl)cc2)CC1=O", "stereo": "stereo not given", "Mtb growth Cornell": -3.476, "Mtb heat-shock": -0.02993}
{"structure": "Cc1ccc(NCCNC(=O)C2Cc3cc(C)c(C)cc3O2)nn1", "stereo": "stereo not given", "Mtb growth Cornell": 5.321, "Mtb heat-shock": -4.695}
{"structure": "CCN1Cc2cc(F)ccc2N(C(C)=O)CCC1=O", "Mtb growth Cornell": 3.515, "Mtb heat-shock": 51.48}

The first 4 entries again:

structure,Mtb growth Cornell,Mtb heat-shock
CC(Cn1cccn1)NC(=O)NCCc1ccc(Cl)s1 (stereo not given),17.48%,34.5%
CC(C)c1cc(C(=O)N2CCN(Cc3ccsc3)CC2)n[nH]1,50.59%,36.75%
CN(C)C(=O)C1CN(Cc2ccccc2)CCN(S(C)(=O)=O)C1 (stereo not given),5.014%,1.279%
CN(C)[C@@H]1CCN(C(=O)Cc2cccs2)[C@H]1Cc1cnn(C)c1.O=C(O)C(F)(F)F,24.69%,5.582%

From ChEMBL document CHEMBL3988442, “University of Dundee, Small-Polar-MMV Screening Library” (2021).